Results: paper PMC9514642
These are yes or no findings as the source states them, for the method shown. Binding seen in cells or lysates may run through a third protein. Some entries that bind do so weakly or less than the wild type.

The chains behind the UniProt entries cited, without tags or fusion partners.
UniProt P35579: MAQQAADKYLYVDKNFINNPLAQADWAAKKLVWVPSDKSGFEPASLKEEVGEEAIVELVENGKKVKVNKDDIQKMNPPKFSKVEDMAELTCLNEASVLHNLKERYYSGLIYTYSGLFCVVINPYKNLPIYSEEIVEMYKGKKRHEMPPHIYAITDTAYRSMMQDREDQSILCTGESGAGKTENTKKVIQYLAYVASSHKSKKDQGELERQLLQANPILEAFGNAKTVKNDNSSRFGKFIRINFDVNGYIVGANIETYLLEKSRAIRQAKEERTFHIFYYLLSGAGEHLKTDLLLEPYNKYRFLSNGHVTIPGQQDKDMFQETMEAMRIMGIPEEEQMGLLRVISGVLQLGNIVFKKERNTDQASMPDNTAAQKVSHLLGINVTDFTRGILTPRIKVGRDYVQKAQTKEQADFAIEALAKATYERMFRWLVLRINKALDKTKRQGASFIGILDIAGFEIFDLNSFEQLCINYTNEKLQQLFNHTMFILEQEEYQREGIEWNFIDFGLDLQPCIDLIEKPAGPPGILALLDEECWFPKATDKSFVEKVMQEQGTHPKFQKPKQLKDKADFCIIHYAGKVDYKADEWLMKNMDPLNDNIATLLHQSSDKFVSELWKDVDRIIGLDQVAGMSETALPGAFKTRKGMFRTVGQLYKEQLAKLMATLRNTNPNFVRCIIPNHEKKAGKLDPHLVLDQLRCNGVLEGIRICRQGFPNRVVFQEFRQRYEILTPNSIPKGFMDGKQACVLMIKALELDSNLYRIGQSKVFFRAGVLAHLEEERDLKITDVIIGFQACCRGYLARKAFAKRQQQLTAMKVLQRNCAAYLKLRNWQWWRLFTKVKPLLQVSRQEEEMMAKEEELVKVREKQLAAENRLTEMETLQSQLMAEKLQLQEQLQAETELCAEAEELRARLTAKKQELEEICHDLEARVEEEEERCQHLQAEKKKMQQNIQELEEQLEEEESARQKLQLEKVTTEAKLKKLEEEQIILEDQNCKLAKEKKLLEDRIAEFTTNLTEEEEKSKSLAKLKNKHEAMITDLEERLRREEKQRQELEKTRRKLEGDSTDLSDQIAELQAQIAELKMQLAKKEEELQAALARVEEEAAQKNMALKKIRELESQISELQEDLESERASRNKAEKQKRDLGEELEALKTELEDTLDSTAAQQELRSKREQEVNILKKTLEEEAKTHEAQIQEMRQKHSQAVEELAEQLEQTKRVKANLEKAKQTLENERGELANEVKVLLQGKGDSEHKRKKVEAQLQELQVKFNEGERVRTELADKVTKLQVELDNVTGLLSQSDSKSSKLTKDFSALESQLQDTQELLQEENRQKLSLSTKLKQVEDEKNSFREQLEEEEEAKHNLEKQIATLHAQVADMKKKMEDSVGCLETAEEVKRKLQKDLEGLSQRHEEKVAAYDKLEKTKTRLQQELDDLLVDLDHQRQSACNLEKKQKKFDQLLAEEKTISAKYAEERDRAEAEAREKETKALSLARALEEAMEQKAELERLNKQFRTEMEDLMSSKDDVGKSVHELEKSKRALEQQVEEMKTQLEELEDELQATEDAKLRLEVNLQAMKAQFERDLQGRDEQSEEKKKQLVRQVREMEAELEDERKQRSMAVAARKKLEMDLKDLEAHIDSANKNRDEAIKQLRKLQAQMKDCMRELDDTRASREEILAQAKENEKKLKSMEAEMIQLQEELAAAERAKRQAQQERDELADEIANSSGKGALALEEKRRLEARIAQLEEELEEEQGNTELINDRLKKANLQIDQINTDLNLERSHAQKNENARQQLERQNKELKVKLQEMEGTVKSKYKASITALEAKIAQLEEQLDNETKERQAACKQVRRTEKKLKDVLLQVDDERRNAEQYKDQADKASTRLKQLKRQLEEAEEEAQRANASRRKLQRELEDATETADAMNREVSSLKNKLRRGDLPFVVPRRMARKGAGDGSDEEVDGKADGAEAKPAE

Biological target: non-muscle myosin heavy chain IIA (NMHC IIA), human (human (endogenous in blood neutrophils)) (UniProt P35579)
Assay: co-IP; anti-NMHC IIA antibody cross-linked to resin, lysates of human blood neutrophils after GM-CSF stimulation; immunoblot for RHOH; overnight at 4°C

binding: binds
B1: RHOH, human (protein, UniProt Q15669 1-191)
chain: MLSSIKCVLVGDSAVGKTSLLVRFTSETFPEAYKPTVYENTGVDVFMDGIQISLGLWDTAGNDAFRSIRPLSYQQADVVLMCYSVANHNSFLNLKNKWIGEIRSNLPCTPVLVVATQTDQREMGPHRASCVNAMEGKKLAQDVRAKGYLECSALSNRGVQQVFECAVRTAVNQARRRNRRRLFSINECKIF
